Source: patent US20160046678A1 (ZYNGENIA, published 2016)
Results are given in words; binding and its absence hold for the method and conditions named. Some results given as binding are weak or reduced against the parent protein; the word gives no strength.

By UniProt entry, the sequences of proteins in these tests, tags left out. Residues count along the entry.
UniProt P21860, residues 20-643: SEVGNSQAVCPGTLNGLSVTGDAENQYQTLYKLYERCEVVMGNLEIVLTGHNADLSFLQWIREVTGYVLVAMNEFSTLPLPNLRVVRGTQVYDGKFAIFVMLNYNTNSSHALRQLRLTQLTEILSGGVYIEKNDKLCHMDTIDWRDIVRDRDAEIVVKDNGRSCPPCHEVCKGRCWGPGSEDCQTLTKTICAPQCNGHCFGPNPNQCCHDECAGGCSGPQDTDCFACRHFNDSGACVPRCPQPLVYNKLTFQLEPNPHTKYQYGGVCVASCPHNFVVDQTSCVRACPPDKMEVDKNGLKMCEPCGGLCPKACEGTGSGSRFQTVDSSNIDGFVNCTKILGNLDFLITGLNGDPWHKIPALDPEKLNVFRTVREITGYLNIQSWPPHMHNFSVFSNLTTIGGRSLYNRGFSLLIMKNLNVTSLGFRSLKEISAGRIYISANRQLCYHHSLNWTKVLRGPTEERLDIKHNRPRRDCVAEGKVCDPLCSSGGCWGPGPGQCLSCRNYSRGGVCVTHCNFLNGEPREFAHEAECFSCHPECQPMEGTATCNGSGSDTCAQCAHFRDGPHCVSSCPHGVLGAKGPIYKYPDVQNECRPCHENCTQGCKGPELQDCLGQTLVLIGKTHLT

Biological target: ErbB3 (UniProt P21860)
Test: MRD screen, Example 48

| Binder | binding |
| --- | --- |
| LNEPYCPFLNPIWKNQCIARL [EGC565] | binds |
| SKGPYCPFLNPIWKDECIARI [EGC469] | binds |
| SSEPYCPFHNPTWKDQCLARS [EGC517] | binds |
| PSKPYCPFLNPYWKAECMSRS [EGC566] | binds |
| SSEPYCPFINPTWKQECIART [EGC579] | binds |
| HSEPYCPFLNPIWKEQCMVRS [EGC532] | binds |
| RSEPYCPFYNPIWYDHCVALT [EGC585] | binds |
| LNEPYCPFLNPIWKDECLART [EGC525] | binds |
| MSDPYCPFQNPIWKAACIART [EGC542] | binds |
| SNLYLCQVYPSGKYHICIEAL [EGC453] | binds |
| SKDPYCPFVNPIWKHECIVRS [EGC529] | binds |
| TSEPYCPFLNPIWKAECISRT [EGC466] | binds |
| RSEPYCPFLNPIWKNECIARS [EGC523] | binds |
| RSEPYCPFLNPTWKAQCIYRT [EGC501] | binds |
| LTEPYCPFLNPTWKDQCLARR [EGC528] | binds |
| NPEPYCPFLNPIWKEQCILRS [EGC586] | binds |
| ESEPYCPFTNPTWKAQCIARS [EGC534] | binds |
| MSEPYCPFLNPTWKEQCLARS [EGC564] | binds |
| RPEPYCPFKNPNWKEQCLARY [EGC578] | binds |
| KSEPYCPFLNPIWKDQCIVRS [EGC540] | binds |
| SLQAYCPFVNPTWKNECLARI [EGC561] | binds |
| VSEPYCPFLNPVWKDQCLSRI [EGC489] | binds |
| DSEPYCPFLNPTWKDQCLARF [EGC518] | binds |
| IGEPYCPFANPTWKQECIART [EGC508] | binds |
| RSEPYCPFLNPTWKEQCIARQ [EGC538] | binds |
| TSDPYCPFVNPIWYNECIART [EGC492] | binds |
| LNEPYCPFMNPNWKAECLARM [EGC468] | binds |
| ISEPYCPFLNPTWKDACIARS [EGC568] | binds |
| SYEPYCPFLNPTWKEQCIIRS [EGC467] | binds |
| VIEPYCPFLNPTWKDHCIART [EGC541] | binds |

Other lines, results leading:

| binding | Binder |
| --- | --- |
| binds | TSEPYCPFLNPIWKDQCIART [EGC522] |
| binds | ESEPYCPFVNPIWKAECIARH [EGC544] |
| binds | MREPYCPFLNPTWKDQCIAIR [EGC512] |
| binds | VNDPYCPFLNPTWKAECIART [EGC476] |
| binds | FSEPYCPFINPTWKAQCLARI [EGC524] |
| binds | SIEPYCPFLNPTWKAECLVRS [EGC488] |
| binds | SREIYCPFLNPIWLAECIARA [EGC526] |
| binds | YREPYCPFLNPIWKEQCIARS [EGC514] |
| binds | TTEPYCPFLNPIWKDQCIARW [EGC582] |
| binds | ISEPYCPFQNPTWKFQCLIRS [EGC536] |
| binds | VSEPYCPFLNPYWKDQCIARH [EGC583] |
| binds | YSKPYCPFINPIWKEQCIARH [EGC548] |
| binds | LPPPCYWTTWGKECQMFD [EGC490] |
| binds | QGQPYCPFVNPIWYAECMTRT [EGC572] |
| binds | TSTPYCPFLNPIWKAECLSRI [EGC472] |
| binds | GRETYCPFLNPIWKAQCLART [EGC539] |
| binds | YNEPYCPFLNPTWKDQCLARI [EGC584] |
| binds | SIDPYCPFLNPTWLKECIARS [EGC502] |
| binds | YSEPYCPFLNPTWKNECIARS [EGC465] |

| binding | Binder |
| --- | --- |
| binds | ISAPYCPFLNPIWKDECIART [EGC515] |
| binds | RYFYMCQVYPSERWQVCVGTS [EGC337] |
| binds | PDSWCHTLYWDLLYCVNQE [EGC570] |
| binds | YNEPYCPFVNPTWKAACVART [EGC546] |
| binds | NSEPYCPFINPIWKAECIART [EGC470] |
| binds | LSGLYCPFLNPTWKDQCIARM [EGC589] |
| binds | LSEAYCPFLNPTWKQHCIALT [EGC563] |
| binds | REVPYCPFLNPIWKEQCIIRT [EGC557] |
| binds | KTEPYCPFLNPTWKAECIART [EGC491] |
| binds | QSKPYCPFLNPTWKAQCIARS [EGC471] |
| binds | ISEPYCPFMNPTWKEQCLART [EGC474] |
| binds | NSEPYCPFLNPSWKASCIARM [EGC519] |
| binds | LREPYCPFLNPIWNVECLARS [EGC516] |
| binds | LIEPYCPFLNPTWYDQCIARS [EGC554] |
| binds | TGSPYCPFLNPTWKAHCIARL [EGC494] |
| binds | WSEPYCPFLNPAWKDQCLART [EGC511] |
| binds | YNEPYCPFINPIWKAECIART [EGC535] |
| binds | SSEPYCPFLNPTWKHECLLRT [EGC533] |
| binds | ASEPYCPFLNPTWKDQCMARL [EGC500] |
